No constants are given. Whether binding was seen depends on the method and setting.

These results are taken from publication PMC5601049.

The test addresses T1, LAX1 (LAX PANICLE1) (rice) (UniProt Q7XAQ6).
T1 sequence: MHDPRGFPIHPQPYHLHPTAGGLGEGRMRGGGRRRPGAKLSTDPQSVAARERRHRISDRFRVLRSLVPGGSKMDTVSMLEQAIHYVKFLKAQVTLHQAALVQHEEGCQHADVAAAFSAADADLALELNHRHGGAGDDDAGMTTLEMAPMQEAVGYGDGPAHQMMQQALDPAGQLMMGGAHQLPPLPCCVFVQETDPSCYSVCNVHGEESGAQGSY
The test is described as follows: two-hybrid; yeast two-hybrid assay of OsRA2 and LAX1; told in one sentence, no figure, no constructs or conditions given.

Regarding “OsRAMOSA2 (OsRA2) protein (rice (Oryza sativa))”, the binding result is listed as “no binding”.
